Measured values from the supplement of paper PMC10849652.
Some of the results follow.

Amino acid sequences for entries named in this document (tags omitted). A change or cut given only in a name is not applied to a line headed by its entry.
UniProt Q13451: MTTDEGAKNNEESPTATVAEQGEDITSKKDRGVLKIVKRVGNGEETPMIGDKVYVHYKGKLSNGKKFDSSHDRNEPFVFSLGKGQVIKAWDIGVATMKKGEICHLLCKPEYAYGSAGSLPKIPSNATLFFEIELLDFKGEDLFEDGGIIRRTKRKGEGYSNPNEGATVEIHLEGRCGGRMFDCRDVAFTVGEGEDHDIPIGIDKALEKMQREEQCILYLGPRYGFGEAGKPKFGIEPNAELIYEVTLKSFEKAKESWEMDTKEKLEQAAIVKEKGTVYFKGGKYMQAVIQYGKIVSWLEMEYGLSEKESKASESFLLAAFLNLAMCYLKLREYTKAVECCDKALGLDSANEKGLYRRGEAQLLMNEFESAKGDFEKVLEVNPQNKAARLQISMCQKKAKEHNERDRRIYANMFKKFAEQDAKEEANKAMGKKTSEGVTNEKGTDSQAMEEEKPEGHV
UniProt O14526: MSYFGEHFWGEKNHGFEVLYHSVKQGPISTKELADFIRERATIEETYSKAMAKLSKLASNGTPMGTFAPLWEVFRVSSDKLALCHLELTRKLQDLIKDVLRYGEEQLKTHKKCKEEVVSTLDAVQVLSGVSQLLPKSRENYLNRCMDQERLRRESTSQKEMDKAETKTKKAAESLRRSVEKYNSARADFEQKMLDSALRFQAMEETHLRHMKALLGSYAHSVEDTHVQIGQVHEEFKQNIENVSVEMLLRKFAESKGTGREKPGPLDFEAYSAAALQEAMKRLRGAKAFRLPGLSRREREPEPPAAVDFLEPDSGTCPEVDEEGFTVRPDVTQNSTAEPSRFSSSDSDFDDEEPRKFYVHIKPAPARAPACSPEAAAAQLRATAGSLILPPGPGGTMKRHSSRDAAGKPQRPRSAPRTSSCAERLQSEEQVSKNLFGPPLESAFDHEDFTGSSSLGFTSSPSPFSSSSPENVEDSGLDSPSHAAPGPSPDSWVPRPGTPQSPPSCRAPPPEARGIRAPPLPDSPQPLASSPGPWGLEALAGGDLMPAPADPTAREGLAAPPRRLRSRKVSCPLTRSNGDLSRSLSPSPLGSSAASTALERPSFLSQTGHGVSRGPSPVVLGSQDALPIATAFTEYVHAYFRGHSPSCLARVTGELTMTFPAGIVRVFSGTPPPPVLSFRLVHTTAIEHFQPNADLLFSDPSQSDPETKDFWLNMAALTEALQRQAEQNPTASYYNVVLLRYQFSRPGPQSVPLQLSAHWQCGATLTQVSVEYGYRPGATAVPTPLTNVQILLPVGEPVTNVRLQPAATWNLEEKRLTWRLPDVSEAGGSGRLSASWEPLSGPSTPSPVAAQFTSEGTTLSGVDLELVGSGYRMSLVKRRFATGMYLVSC
UniProt Q5XUX1: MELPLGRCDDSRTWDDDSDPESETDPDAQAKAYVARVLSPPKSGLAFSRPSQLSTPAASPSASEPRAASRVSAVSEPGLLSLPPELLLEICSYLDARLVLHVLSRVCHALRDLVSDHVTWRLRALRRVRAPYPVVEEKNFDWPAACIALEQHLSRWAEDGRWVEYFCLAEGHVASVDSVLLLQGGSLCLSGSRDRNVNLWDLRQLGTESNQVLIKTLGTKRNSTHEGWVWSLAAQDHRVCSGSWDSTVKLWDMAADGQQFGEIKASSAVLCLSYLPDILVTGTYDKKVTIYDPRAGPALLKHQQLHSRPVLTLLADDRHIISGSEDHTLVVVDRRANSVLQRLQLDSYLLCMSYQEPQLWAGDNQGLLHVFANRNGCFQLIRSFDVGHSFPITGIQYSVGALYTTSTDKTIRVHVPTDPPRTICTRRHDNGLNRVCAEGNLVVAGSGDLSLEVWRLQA
UniProt Q14192: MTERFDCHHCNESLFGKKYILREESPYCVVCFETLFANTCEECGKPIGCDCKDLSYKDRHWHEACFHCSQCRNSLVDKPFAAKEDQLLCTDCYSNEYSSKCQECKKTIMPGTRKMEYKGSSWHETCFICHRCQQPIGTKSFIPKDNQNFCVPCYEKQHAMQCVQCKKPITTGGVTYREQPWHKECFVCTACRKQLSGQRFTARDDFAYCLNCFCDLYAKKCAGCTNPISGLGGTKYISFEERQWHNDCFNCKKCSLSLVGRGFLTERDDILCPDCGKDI
UniProt P39748, whole entry, looked up: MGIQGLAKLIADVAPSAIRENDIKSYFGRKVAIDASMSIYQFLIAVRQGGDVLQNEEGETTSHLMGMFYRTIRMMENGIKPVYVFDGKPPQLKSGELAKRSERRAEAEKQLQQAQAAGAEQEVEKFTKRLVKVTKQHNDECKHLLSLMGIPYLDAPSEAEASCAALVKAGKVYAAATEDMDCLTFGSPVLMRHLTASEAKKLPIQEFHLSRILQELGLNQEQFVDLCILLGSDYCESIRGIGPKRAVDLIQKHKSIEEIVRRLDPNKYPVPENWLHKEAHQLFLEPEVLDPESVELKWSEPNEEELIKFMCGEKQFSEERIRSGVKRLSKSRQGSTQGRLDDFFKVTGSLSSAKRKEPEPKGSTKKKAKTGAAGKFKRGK
UniProt P22830: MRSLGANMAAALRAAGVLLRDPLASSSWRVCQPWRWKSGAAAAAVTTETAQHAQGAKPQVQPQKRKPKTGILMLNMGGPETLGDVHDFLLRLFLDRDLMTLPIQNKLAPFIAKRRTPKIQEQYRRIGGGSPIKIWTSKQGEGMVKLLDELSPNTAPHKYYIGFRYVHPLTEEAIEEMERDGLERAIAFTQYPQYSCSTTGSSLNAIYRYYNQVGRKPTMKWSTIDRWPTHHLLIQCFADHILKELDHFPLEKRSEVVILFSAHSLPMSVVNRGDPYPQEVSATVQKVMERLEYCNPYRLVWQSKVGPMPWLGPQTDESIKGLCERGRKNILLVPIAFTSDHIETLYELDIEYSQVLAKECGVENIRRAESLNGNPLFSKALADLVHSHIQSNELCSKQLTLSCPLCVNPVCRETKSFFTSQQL
UniProt Q02790: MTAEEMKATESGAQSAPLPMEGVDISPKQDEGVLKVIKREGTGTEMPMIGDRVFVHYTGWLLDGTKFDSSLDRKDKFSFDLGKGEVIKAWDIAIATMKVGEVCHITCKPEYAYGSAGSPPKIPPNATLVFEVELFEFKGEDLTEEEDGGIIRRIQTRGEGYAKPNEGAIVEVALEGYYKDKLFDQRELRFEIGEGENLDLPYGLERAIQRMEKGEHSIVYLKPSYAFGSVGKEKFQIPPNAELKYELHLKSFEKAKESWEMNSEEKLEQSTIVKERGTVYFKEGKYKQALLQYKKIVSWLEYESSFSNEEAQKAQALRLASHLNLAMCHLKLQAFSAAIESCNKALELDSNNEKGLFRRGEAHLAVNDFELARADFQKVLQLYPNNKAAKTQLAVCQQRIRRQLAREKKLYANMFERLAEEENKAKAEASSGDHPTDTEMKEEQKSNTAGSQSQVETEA
UniProt Q9Y3D6: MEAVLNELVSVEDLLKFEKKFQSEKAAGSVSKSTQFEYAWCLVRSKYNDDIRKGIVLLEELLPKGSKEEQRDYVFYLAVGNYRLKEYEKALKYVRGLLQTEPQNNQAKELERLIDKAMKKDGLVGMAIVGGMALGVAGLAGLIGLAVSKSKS
UniProt Q14318: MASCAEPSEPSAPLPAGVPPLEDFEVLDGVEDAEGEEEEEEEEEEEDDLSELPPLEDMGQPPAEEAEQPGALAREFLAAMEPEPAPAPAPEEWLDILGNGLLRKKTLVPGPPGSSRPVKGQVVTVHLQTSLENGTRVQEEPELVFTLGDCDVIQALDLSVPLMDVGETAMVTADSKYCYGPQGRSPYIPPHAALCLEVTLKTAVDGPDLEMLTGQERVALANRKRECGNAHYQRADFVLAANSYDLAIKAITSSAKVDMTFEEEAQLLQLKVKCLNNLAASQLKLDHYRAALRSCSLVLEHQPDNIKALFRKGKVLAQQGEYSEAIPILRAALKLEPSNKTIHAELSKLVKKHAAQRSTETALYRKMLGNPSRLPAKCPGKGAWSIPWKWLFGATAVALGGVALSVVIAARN
UniProt Q8NFG4: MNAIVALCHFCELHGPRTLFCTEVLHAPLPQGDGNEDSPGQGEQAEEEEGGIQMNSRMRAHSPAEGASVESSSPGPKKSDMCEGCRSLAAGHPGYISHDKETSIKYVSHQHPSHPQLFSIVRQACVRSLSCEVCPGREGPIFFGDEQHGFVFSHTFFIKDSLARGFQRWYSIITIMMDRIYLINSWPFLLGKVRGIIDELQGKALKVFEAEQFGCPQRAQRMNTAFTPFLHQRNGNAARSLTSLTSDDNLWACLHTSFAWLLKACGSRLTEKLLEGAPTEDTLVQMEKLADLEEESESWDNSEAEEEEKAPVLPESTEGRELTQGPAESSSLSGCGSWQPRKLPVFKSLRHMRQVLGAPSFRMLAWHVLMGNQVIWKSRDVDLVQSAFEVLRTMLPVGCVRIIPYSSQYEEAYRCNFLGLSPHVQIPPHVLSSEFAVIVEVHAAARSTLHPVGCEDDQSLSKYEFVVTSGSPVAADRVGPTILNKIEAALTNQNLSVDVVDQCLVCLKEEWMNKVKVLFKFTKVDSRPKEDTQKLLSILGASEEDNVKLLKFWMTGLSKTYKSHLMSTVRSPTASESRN
UniProt Q96RU3: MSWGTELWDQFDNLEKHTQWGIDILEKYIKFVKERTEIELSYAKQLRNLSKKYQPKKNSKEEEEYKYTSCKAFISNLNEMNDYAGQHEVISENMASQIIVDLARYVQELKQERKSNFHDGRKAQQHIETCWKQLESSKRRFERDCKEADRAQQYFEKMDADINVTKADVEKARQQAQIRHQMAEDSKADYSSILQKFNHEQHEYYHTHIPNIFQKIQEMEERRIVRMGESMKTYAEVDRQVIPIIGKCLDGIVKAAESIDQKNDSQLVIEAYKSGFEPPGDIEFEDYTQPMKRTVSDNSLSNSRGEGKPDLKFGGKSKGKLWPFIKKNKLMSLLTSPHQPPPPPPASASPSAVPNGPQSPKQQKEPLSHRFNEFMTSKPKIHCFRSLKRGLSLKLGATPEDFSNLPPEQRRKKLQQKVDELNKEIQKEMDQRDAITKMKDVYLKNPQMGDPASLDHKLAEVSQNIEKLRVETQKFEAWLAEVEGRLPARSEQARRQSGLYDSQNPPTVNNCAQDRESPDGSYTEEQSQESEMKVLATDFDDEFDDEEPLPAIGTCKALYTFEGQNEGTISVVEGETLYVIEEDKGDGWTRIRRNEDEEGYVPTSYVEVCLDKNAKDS
UniProt O95466, whole entry, looked up: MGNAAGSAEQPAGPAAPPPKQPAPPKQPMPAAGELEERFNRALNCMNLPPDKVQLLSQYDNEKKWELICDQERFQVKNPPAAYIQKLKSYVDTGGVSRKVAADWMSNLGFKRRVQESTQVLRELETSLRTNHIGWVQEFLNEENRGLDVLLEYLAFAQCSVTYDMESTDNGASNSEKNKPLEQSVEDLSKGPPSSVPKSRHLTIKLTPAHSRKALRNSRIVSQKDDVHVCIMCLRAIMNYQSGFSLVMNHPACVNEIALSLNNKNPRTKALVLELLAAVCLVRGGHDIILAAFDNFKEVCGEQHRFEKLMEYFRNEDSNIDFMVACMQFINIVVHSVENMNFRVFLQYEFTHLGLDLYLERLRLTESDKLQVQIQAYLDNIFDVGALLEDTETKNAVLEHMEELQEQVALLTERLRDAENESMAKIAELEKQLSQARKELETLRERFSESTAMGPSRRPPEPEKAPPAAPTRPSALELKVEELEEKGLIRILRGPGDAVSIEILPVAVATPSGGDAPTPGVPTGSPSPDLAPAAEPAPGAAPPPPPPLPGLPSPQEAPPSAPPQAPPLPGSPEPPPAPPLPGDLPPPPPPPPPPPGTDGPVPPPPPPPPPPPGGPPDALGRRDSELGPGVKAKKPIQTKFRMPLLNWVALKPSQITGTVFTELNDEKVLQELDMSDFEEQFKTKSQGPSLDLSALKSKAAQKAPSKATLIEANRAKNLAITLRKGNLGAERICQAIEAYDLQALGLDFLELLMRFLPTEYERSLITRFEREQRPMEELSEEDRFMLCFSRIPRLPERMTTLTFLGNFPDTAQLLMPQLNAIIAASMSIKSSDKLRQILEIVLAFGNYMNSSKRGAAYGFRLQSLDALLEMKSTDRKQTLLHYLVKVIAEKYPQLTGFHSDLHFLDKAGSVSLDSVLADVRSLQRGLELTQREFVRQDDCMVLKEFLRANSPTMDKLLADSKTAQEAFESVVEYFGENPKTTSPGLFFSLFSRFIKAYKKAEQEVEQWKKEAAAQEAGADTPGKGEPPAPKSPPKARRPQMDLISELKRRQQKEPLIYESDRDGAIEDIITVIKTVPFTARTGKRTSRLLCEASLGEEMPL
UniProt O43427: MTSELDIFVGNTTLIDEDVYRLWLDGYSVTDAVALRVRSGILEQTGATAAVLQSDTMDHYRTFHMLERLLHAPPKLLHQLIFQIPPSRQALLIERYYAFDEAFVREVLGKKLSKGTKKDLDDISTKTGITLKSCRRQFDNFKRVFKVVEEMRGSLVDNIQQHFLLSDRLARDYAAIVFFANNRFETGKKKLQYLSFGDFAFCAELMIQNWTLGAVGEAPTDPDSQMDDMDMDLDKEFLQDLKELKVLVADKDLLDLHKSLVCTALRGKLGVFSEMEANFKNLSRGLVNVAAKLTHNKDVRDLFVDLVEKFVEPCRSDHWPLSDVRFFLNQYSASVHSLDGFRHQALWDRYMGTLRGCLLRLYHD

What was measured:
Test in all cases: log2 fold change, soluble protein after heating vs DMSO (PISA); higher = thermal stabilisation; K562 lysate, 10 uM; active = over 0.2 and 3.5 SD of the protein, either way, in both replicates (recomputed)
[1] = compound: C1=CC=C(C=C1)[C@H](COC2=CC3=C(C=C2)NC(=O)N3)NC(=O)C4=CC=CN(C4=O)CC5=CC(=C(C=C5)F)F
Procedure, shortened: (§1)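 K562 pellets were dounce-homogenised in PBS pH 7.4 containing 1 mM MgCl2, and the crude extract, at 1 mg/mL protein, was exposed to 10 μM compound for 30 min. Aliquots were heated for 3 min across 48°C-58°C, pooled, brought to 0.5% NP-40 at 4°C and spun at 21,000xg for 90 min, with the supernatant taken as soluble protein. TMTpro 16plex LC-MS/MS with equalised channel sums quantified that protein. Values are log-two fold changes in thermal stability relative to solvent controls, taken from duplicates.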

[2] = compound: CC1=C(SC2=C1C(=N[C@H](C3=NN=C(N32)C)CC(=O)N)C4=CC=C(C=C4)Cl)C
Procedure, shortened: as §1

[3] = compound: CC1=C2C(=CC=C1)N=C(N(C2=O)C3=CC=CC=C3C)CN4C=NC5=C(N=CN=C54)N
Procedure, shortened: as §1

[4] = compound: Cc1sc2c(c1C)C(c1ccc(Cl)cc1)=N[C@@H](CC(=O)OC(C)(C)C)c1nnc(C)n1-2
Procedure, shortened: as §1

[5] = compound: c1ccc([C@@H]2C[C@H]2NC2CCNCC2)cc1
Procedure, shortened: as §1

Measured: log2 fold change

FH (UniProt P07954)
inactive: [1] -0.004 | [2] 0.031 | [3] 0.017 | [4] 0.044 | [5] 0.058

FBXL18 isoform 4 (UniProt Q96ME1)
inactive: [1] 0.037 | [2] -0.014 | [3] -0.014 | [4] -0.014 | [5] 0.005

FKBP5 (UniProt Q13451)
inactive: [1] -0.006 | [2] 0.003 | [3] 0.018 | [4] -0.019 | [5] 0.01

FBXO2 (UniProt Q9UK22)
inactive: [1] -0.274 | [2] 0.068 | [3] -0.18 | [4] -0.06 | [5] -0.395

FN1 (UniProt P02751)
inactive: [1] 0.045 | [2] -0.023 | [3] -0.078 | [4] 0.062 | [5] -0.02

FLVCR1 (UniProt Q9Y5Y0)
inactive: [1] -0.076 | [2] -0.026 | [3] -0.07 | [4] 0.172 | [5] -0.02

FCHO1 (UniProt O14526)
inactive: [1] -0.026 | [2] 0.066 | [3] -0.025 | [4] 0.009 | [5] 0.027

FBXW9 (UniProt Q5XUX1)
inactive: [1] 0.05 | [2] 0.016 | [3] 0.038 | [4] -0.095 | [5] -0.04

FHL2 (UniProt Q14192)
inactive: [1] 0.071 | [2] -0.006 | [3] 0.026 | [4] 0.009 | [5] -0.086

FEN1 (UniProt P39748)
inactive: [1] -0.029 | [2] 0.029 | [3] -0.016 | [4] 0.024 | [5] 0.022

FECH isoform 2 (UniProt P22830)
inactive: [1] 0.06 | [2] -0.101 | [3] -0.126 | [4] -0.229 | [5] -0.092

FBXO9 (UniProt Q9UK97)
inactive: [1] -0.07 | [2] -0.112 | [3] -0.002 | [4] 0.089 | [5] 0.095

FBRSL1, A0A3B3IRR3
inactive: [1] 0.002 | [2] 0.005 | [3] -0.021 | [4] 0.02 | [5] -0.028

FKBP4 (UniProt Q02790)
inactive: [1] -0.001 | [2] 0.002 | [3] -0.003 | [4] 0.006 | [5] 0.012

FIS1 (UniProt Q9Y3D6)
inactive: [1] 0.061 | [2] -0.002 | [3] -0.03 | [4] -0.017 | [5] 0.013

FBXO6 (UniProt Q9NRD1)
inactive: [1] 0.042 | [2] -0.022 | [3] 0.037 | [4] -0.023 | [5] 0.019

FAM89A (UniProt Q96GI7)
inactive: [1] 0.104 | [2] 0.038 | [3] -0.102 | [4] -0.007 | [5] 0.012

Two records picked at random from the list so far, as already listed:
FBRSL1, A0A3B3IRR3
inactive: [1] 0.002 | [2] 0.005 | [3] -0.021 | [4] 0.02 | [5] -0.028

FN1 (UniProt P02751)
inactive: [1] 0.045 | [2] -0.023 | [3] -0.078 | [4] 0.062 | [5] -0.02

Continuation:

FKBP8 isoform 2 (UniProt Q14318)
inactive: [1] -0.061 | [2] 0.012 | [3] -0.023 | [4] -0.084 | [5] 0.043

FLCN (UniProt Q8NFG4)
inactive: [1] -0.007 | [2] 0.081 | [3] -0.004 | [4] 0.018 | [5] -0.033

FNBP1 (UniProt Q96RU3)
inactive: [1] 0.024 | [2] -0.025 | [3] 0.076 | [4] 0.019 | [5] 0.065

FMNL1 isoform 3 (UniProt O95466)
inactive: [1] 0.104 | [2] -0.01 | [3] 0.057 | [4] 0.027 | [5] 0.082

FIBP (UniProt O43427)
inactive: [1] -0.018 | [2] 0 | [3] -0.044 | [4] -0.027 | [5] -0.002

FAR1 (UniProt Q8WVX9)
inactive: [1] -0.262 | [2] 0.005 | [3] -0.017 | [4] 0.011 | [5] 0

FCGR2A (UniProt P12318)
inactive: [1] 0.024 | [2] 0.013 | [3] 0.017 | [4] -0.018 | [5] -0.05
